The values below come from patent US20240309104A1 (PROMETHEUS BIOSCIENCES, published 2024).

No constants are given. Whether binding was seen depends on the method and setting. Some binding calls cover weakened binding; strength is not graded here.

The target in this experiment is T1, DR3 receptor on human TF-1 cells (human) (UniProt Q93038).
T1 sequence (looked up): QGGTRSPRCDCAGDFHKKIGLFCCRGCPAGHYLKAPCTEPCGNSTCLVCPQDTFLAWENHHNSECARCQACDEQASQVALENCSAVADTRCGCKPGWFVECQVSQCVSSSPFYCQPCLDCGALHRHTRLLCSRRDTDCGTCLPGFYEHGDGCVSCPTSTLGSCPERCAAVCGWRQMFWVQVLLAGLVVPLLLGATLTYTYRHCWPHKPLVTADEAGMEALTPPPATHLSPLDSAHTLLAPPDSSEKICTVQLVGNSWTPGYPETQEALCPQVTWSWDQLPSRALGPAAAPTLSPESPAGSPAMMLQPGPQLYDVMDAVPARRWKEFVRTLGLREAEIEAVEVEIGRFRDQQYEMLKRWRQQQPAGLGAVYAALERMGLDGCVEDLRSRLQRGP
Nature of the experiment: TF-1 cell caspase activation assay.

B1: recombinant cynomolgus monkey TL1A protein (ligand)
chain: LKGQEFAPSHQQVYAPLRADGDKPRAHLTVVRQTPTQHLKNQFPALHWEHELGLAFTKNRMNYTNKFLLIPESGDYFVYSQVTFRGMTSECSEIRQAGRPNKPDSITVVITKVTDSYPEPTQLLMGTKSVCEVGSNWFQPIYLGAMFSLQEGDKLMVNVSDISLVDYTKEDKTFFGAFLL
Consider B1, for which the binding result is reported as “binds”.
